Results deposited as PubChem BioAssay AID652272 (Drosophila RNAi Screening Center, 2013)
In all, the deposit lists about 21,000 reagents; this is an unselected part of those with a known target gene and a result. Over the whole deposit, 503 (2.4%) were called active. 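Raw plate light values, not normalised; calls rest on replicate z-scores that were not deposited; hits include reporter decreases as well as increases.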 Names joined by + are all predicted targets of the reagent. Not stated in the record: the amount of reagent, the time to read-out.

- Purpose: 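Genome-wide knock-down search for components of Hedgehog signalling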 (primary screen)
- Cells: Drosophila clone 8 (Cl8) cells
- Knock-down reagent: long dsRNA against Drosophila genes
- Read-out: 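Firefly light from a Hedgehog-responsive ptc promoter reporter and Renilla reference light, both read on a plate reader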
- Direction: firefly Hh reporter signal: higher = more ptc reporter light; Renilla reference signal: higher = more Renilla control light
- Rule for the call: 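Hit when the z-score averaged over two replicates is under -2 or over +3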
- Meaning of the calls: active = hit: reporter lowered or raised; inactive = not a hit

target | DRSC id | firefly Hh reporter signal, replicate 1 | firefly Hh reporter signal, replicate 2 | firefly Hh reporter signal, replicate 3 | Renilla reference signal, replicate 1 | Renilla reference signal, replicate 2 | outcome
cac | DRSC19743 | 81542 | 2.65e5 | – | 2365 | 9228 | inactive
cac | DRSC20354 | 88042 | 69866 | – | 2032 | 1812 | inactive
Pex19 | DRSC02839 | 1.07e5 | 53632 | – | 4347 | 2416 | inactive
MSBP | DRSC20146 | 94496 | 84837 | – | 2841 | 1987 | inactive
betaNACtes4 | DRSC19801 | 86027 | 2.15e5 | – | 2483 | 8816 | inactive
CG11362 | DRSC04106 | 1.23e5 | 92256 | – | 2344 | 8248 | inactive
CG6479 | DRSC10647 | 64903 | 91835 | – | 2581 | 3600 | inactive
CG15225 | DRSC04232 | 1.39e5 | 59660 | – | 3808 | 5773 | inactive
Bace | DRSC02197 | 5.20e5 | 83170 | – | 3800 | 3800 | inactive
CG14856 | DRSC14980 | 1.14e5 | 1.25e5 | – | 4435 | 3395 | inactive
frtz | DRSC00512 | 1.11e5 | 74681 | – | 3024 | 1882 | inactive
conu | DRSC07810 | 1.25e5 | 3.43e5 | – | 3545 | 13552 | inactive
CG43098 | DRSC08051 | 1.05e5 | 1.92e5 | – | 2940 | 7684 | inactive
erm | DRSC00700 | 1.50e5 | 1.02e5 | – | 5480 | 4240 | inactive
CG9130 + CG9133 | DRSC08624 | 1.28e5 | 7.66e5 | 64801 | 4386 | 47285 | inactive
CG9130 + CG9133 | DRSC08625 | 1.28e5 | 1.20e5 | – | 5767 | 5040 | inactive
GluRIIC | DRSC00642 | 1.07e5 | 58480 | – | 4701 | 2853 | inactive
ppk3 | DRSC04275 | 1.10e5 | 68754 | – | 2371 | 5767 | inactive
CG7059 | DRSC16187 | 1.02e6 | 1.78e5 | – | 49661 | 4321 | inactive
Or85c | DRSC16766 | 71313 | 1.48e5 | – | 3222 | 4088 | inactive
CG33269 | DRSC10585 | 65260 | 60640 | 45715 | 6250 | 3415 | inactive
DCAF12 | DRSC15475 | 95253 | 80396 | – | 3536 | 2961 | inactive
wuc | DRSC06152 | 57819 | 54760 | – | 1337 | 4013 | inactive

A portion from the list above:
target | DRSC id | firefly Hh reporter signal, replicate 1 | firefly Hh reporter signal, replicate 2 | firefly Hh reporter signal, replicate 3 | Renilla reference signal, replicate 1 | Renilla reference signal, replicate 2 | outcome
CG7059 | DRSC16187 | 1.02e6 | 1.78e5 | – | 49661 | 4321 | inactive
Or85c | DRSC16766 | 71313 | 1.48e5 | – | 3222 | 4088 | inactive
